The experiment relates to Salmonella enterica serovar Typhimurium SL1344. Nature of the experiment: normalized intracellular growth (luminescence, IQM-normalized) in RAW264.7 macrophages (fraction of plate interquartile mean); higher = more bacterial growth (less inhibition). The following applies: 10 µM.

Each structure is given as a SMILES string. “And” between values parts separate entries of the source, which are not always exact repeats. Equal values may be shown once. ± gives the standard deviation of the averaged measurements. Over roughly 1,600 compounds, “normalized intracellular growth (luminescence, IQM-normalized) in RAW264.7 macrophages” has its median near 1; the lowest 2% begin near 0.43. Some of the results follow.

With `COc1ccc(C(=O)c2ccc(C)cc2)c(O)c1`, the normalized intracellular growth was 1.02 ± 0.028 (time point: T3 (3 h)) and 0.926 ± 0.2 (time point: Tfinal (~6 h)).
`NC(=O)NC(=O)Cc1ccccc1`: the normalized intracellular growth reads like this: (time point: T3 (3 h)) 0.993 ± 0.021; (time point: Tfinal (~6 h)) 0.979 ± 0.038.
In the same order, the values of `CN1[C@@H](CC(=O)c2ccccc2)CCC[C@H]1C[C@H](O)c1ccccc1` are 0.974 ± 0.048 and 1.13 ± 0.14.
Taken in the same sequence, the figures for `c1ccc2[nH]c(-c3cscn3)nc2c1` were 1.02 ± 0.034 and 1.19 ± 0.023.
For the compound `OC[C@@H](O)[C@@H](O[C@@H]1O[C@H](CO)[C@H](O)[C@H](O)[C@H]1O)[C@H](O)[C@@H](O)CO`, the normalized intracellular growth is, setting by setting: (time point: T3 (3 h)) 1 and 0.956; (time point: Tfinal (~6 h)) 1.01.
As for `COc1ccc(-c2cc(=O)c3c(O)cc(O[C@@H]4O[C@H](CO[C@@H]5O[C@@H](C)[C@H](O)[C@@H](O)[C@H]5O)[C@@H](O)[C@H](O)[C@H]4O)cc3o2)cc1O`, the normalized intracellular growth (time point: T3 (3 h)) came out at 1.04 ± 0.074 and the normalized intracellular growth (time point: Tfinal (~6 h)) stood at 0.916 ± 0.11.
In the same order, the values of `O=C(Nc1ccccc1)c1ccccc1O` are 1.02 ± 0.035 and 1.01 ± 0.057.
In the same order, the values of `CS(=O)(=O)c1ccc(C2=C(c3ccccc3)C(=O)OC2)cc1` are 1.007 ± 0.0092 and 1.27 ± 0.098.
Taken in the same sequence, the figures for `Oc1ccc(Cl)c2c1CCC2` were 1.13 ± 0.017 and 1.12 ± 0.2.
For the compound `Cc1[nH]c(=O)c(C#N)cc1-c1ccncc1`, the normalized intracellular growth (time point: T3 (3 h)) stood at 0.9382 ± 0.0078 and the normalized intracellular growth (time point: Tfinal (~6 h)) turned out to be 0.867 ± 0.087.
In the same order, the values of `C#C[C@]1(O)CC[C@H]2[C@@H]3CCc4cc(OC5CCCC5)ccc4[C@H]3CC[C@@]21C` are 0.99 ± 0.07 and 0.92 ± 0.34.
`CN(C)CCC=C1c2ccccc2CCc2ccccc21` returned a normalized intracellular growth (time point: T3 (3 h)) of 1.02 ± 0.052 and a normalized intracellular growth (time point: Tfinal (~6 h)) of 1.06 ± 0.048.
In the same order, the values of `Cc1ccnc2c1NC(=O)c1cccnc1N2C1CC1` are 1.08 ± 0.037 and 1.16 ± 0.15.
Take `N=C(N)N`: the normalized intracellular growth is, setting by setting: (time point: T3 (3 h)) 1.02 ± 0.081; (time point: Tfinal (~6 h)) 1 ± 0.13.
Taken in the same sequence, the figures for `C[C@]12CC[C@H]3C(=CCc4cc(O)ccc43)[C@@H]1CCC2=O` were 1.04 ± 0.049 and 1.23 ± 0.049.
Taken in the same sequence, the figures for `C[C@]12C=CC(=O)C=C1CC[C@@H]1[C@@H]2[C@@H](O)C[C@@]2(C)[C@H]1CC[C@]2(O)C(=O)COP(=O)(O)O` were 0.954 ± 0.029 and 1.16 ± 0.24.
In the same order, the values of `Cc1c(C(N)=O)cc([N+](=O)[O-])cc1[N+](=O)[O-]` are 0.958 ± 0.046 and 0.95 ± 0.089.
For `C=C[C@H]1CN2CC[C@H]1C[C@@H]2[C@@H](O)c1ccnc2ccc(OC)cc12`, the normalized intracellular growth (time point: T3 (3 h)) is 0.945 ± 0.031 and the normalized intracellular growth (time point: Tfinal (~6 h)) turned out to be 0.979 ± 0.037.
For `Cc1cccc(C)c1NC(=O)C1CCCCN1C` (stereo unspecified), the normalized intracellular growth is, setting by setting: (time point: T3 (3 h)) 1.05 ± 0.064; (time point: Tfinal (~6 h)) 1.04 ± 0.09.
As to `COc1ccc(C2C(=O)c3ccccc3C2=O)cc1`, the normalized intracellular growth is 1 ± 0.11 (time point: T3 (3 h)) and 1.1 ± 0.094 (time point: Tfinal (~6 h)).
In the same order, the values of `CN(C)c1ccc2nc3ccc(=[N+](C)C)cc-3sc2c1` are 1.29 ± 0.088 and 1.4 ± 0.2.
In the same order, the values of `Cc1ncc([N+](=O)[O-])n1CC(O)CCl` (stereo unspecified) are 1 ± 0.046 and 1.09 ± 0.2.
As to `CCCCC(CC)CN1CN(CC(CC)CCCC)CC(C)(N)C1` (stereo unspecified), the normalized intracellular growth worked out at 0.709 ± 0.16 (time point: T3 (3 h)) and 0.861 ± 0.24 (time point: Tfinal (~6 h)).
In the same order, the values of `COc1cc2c(cc1OC)C(=O)C(CC1CCN(Cc3ccccc3)CC1)C2` (stereo unspecified) are 1.14 ± 0.093 and 1.21 ± 0.073.
Compound `O=C(CCCN1CCC(O)(c2ccc(Br)cc2)CC1)c1ccc(F)cc1` displayed a normalized intracellular growth (time point: T3 (3 h)) of 0.391 ± 0.23 and a normalized intracellular growth (time point: Tfinal (~6 h)) of 1.28 ± 0.14.
As for `CNCC[C@H](Oc1cccc2ccccc12)c1cccs1`, the normalized intracellular growth runs as follows: (time point: T3 (3 h)) 0.92 ± 0.071; (time point: Tfinal (~6 h)) 1.03 ± 0.18.
Turning to `CC(=O)c1ccc2c(c1)N(CCCN1CCC(CCO)CC1)c1ccccc1S2`, the normalized intracellular growth amounted to 1 ± 0.047 (time point: T3 (3 h)) and 1.16 ± 0.032 (time point: Tfinal (~6 h)).
Taken in the same sequence, the figures for `CO[C@@]1(NC(=O)Cc2cccs2)C(=O)N2C(C(=O)O)=C(COC(N)=O)CS[C@@H]21` were 0.966 ± 0.025 and 0.984 ± 0.072.
In the same order, the values of `COc1cc(Cc2cnc(N)nc2N)cc(OC)c1OC` are 0.563 ± 0.068 and 0.155 ± 0.025.
In the same order, the values of `CCN(CC)CCOC(=O)C(c1ccccc1)C1CCCCC1` (stereo unspecified) are 0.932 ± 0.011 and 1.06 ± 0.049.
As for `COCC1=C(C(=O)OC(C)OC(=O)OC(C)C)N2C(=O)[C@@H](NC(=O)/C(=N\OC)c3csc(N)n3)[C@H]2SC1` (stereo partly specified), the normalized intracellular growth by setting is: (time point: T3 (3 h)) 0.953 ± 0.066; (time point: Tfinal (~6 h)) 1.06 ± 0.2.
In the same order, the values of `CC[C@H]1OC(=O)[C@H](C)[C@@H](O[C@H]2C[C@@](C)(OC)[C@@H](O)[C@H](C)O2)[C@H](C)[C@@H](O[C@@H]2O[C@H](C)C[C@H](N(C)C)[C@H]2O)[C@](C)(OC)C[C@@H](C)C(=O)[C@H](C)[C@@H](O)[C@]1(C)O` are 1.09 ± 0.015 and 0.976 ± 0.071.
With `CCCCC1=NC2(CCCC2)C(=O)N1Cc1ccc(-c2ccccc2-c2nnn[nH]2)cc1`, the normalized intracellular growth was 1.06 ± 0.014 (time point: T3 (3 h)) and 1.14 ± 0.22 (time point: Tfinal (~6 h)).
Taken in the same sequence, the figures for `CCCCOC(=O)c1ccc(N)cc1` were 0.9693 ± 0.0086 and 0.953 ± 0.012.
Taken in the same sequence, the figures for `O=C(Nc1ccc(C(=O)O)c(O)c1)c1ccccc1` were 1.03 ± 0.11 and 1.02 ± 0.065.
As to `COc1ccc(Cc2cnc(N)nc2N)cc1OC`, the normalized intracellular growth amounted to 0.784 ± 0.028 (time point: T3 (3 h)) and 0.17 ± 0.021 (time point: Tfinal (~6 h)).
Turning to `N=C(N)NC(=O)c1nc(Cl)c(N)nc1N`, the normalized intracellular growth stood at 0.952 ± 0.011 (time point: T3 (3 h)) and 0.995 ± 0.062 (time point: Tfinal (~6 h)).
In the same order, the values of `Cc1cc(C2CCCCC2)n(O)c(=O)c1` are 0.955 ± 0.034 and 0.916 ± 0.18.
In the same order, the values of `S=C1SCN(Cc2ccccc2)CN1Cc1ccccc1` are 1.01 ± 0.087 and 0.779 ± 0.14.
`NS(=O)(=O)c1cc(C(=O)O)c(NCc2ccco2)cc1Cl` came in with a normalized intracellular growth (time point: T3 (3 h)) of 0.822 ± 0.066 and a normalized intracellular growth (time point: Tfinal (~6 h)) of 0.971 ± 0.029.
In the same order, the values of `O=C(O)c1cc(=O)c2ccccc2o1` are 0.979 ± 0.052 and 0.899 ± 0.18.
With `CCOC(=O)[C@H](CCc1ccccc1)N[C@@H](C)C(=O)N1[C@H](C(=O)O)C[C@@H]2CCC[C@@H]21`, the normalized intracellular growth is, setting by setting: (time point: T3 (3 h)) 0.949 ± 0.12; (time point: Tfinal (~6 h)) 0.922 ± 0.086.
Taken in the same sequence, the figures for `NC(=O)c1ncn([C@@H]2O[C@H](CO)[C@@H](O)[C@H]2O)n1` were 1.022 ± 0.007 and 1.25 ± 0.14.

For the origin of these results see the supplement of paper PMC6331611.
